# Experimental data: PubChem BioAssay AID720505 (Drosophila RNAi Screening Center, 2013)
# Aim: 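Knock-downs that reduce calcium influx once internal stores are emptied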 (primary screen)
# Cell system: Drosophila S2R+ cells
# Reagents: long dsRNA against Drosophila genes
# Conditions: thapsigargin (2 µM) in calcium-free buffer to empty internal stores, then 2 mM calcium added back
# Read-out: 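Fluo-4 signal in 384-well plates read on a FLIPR after thapsigargin (2 µM, calcium-free) store depletion and 2 mM calcium add-back; unnormalised mean endpoint per well; screen run twice, selected wells retested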
# Reading the numbers: calcium signal and retest calcium signal: higher = more calcium entry after store depletion
# Rule for the call: 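About 1500 genes called as lowering calcium entry, by varying amounts, judged against per-plate control wells with STIM1 as positive and Rho1 as negative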
# Calls: active = called as lowering calcium entry; inactive = not called
# In all, the deposit lists about 20,000 reagents; shown is an unselected part of those that have a named target and a result. Of all reagents, about 2,100 (10%) are marked active. 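Raw plate signals without normalisation; calls rest on control-based scores that were not deposited; replicate 2 separates called from uncalled poorly.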 Unmarked entries are inactive. Reagents against one gene are numbered here. A plus sign joins genes that one reagent is predicted to hit. Not given: the amount of reagent, the time to read-out.
target gene,dsRNA no.,"calcium signal, replicate 1","calcium signal, replicate 2","retest calcium signal, replicate 1","retest calcium signal, replicate 2"
Dup99B (Ductus ejaculatorius peptide 99B),1,86.3,144,,
egg (eggless),1,53.6 (active),157,,
egg (eggless),2,112,105,,
Rpn11 (Regulatory particle non-ATPase 11),1,65.8 (active),102,,
Atu (Another transcription unit),1,157,169,,
CG13907,1,107,112,,
CG9240,1,107,164,,
tsl (torso-like),1,156,154,,
CG4332,1,164,143,,
CG7342,1,108,164,,
CG42307 + mus312,1,70,63,,
CG12942,1,155,112,,
CG5254,1,85.2,98.5,,
CG6550,1,97.1,115,,
pum (pumilio),1,78.9,183,7279,131
pum (pumilio),2,87.4,173,,
pum (pumilio),3,135,191,,
pum (pumilio),4,78.6,86.6,,
Skp2 (S-phase kinase-associated protein 2),1,111,83,,
CG5805,1,153,203,,
CR43670 + CR43671 + CR43669,1,115,85.3,,
CR43670 + CR43671 + CR43669,2,126,99.4,,
CG32832,1,64.7 (active),97.8,,
CG5245,1,144,130,,
CG13743,1,120,87.6,5971,113
CG13743,2,162,113,,
CG13743,3,111,186,,
Sld5,1,188,124,,
fax (failed axon connections),1,115,94.1,,
CG4362,1,72.8 (active),97,,
Pk34A (Protein kinase at 34A),1,98.4,133,,
CG42507 + Trl,1,92,96.6,,
Polr2I (RNA polymerase II subunit I),1,73.7 (active),51.4,,
Cyp309a2 (Cytochrome P450 309a2),1,178,132,,

3 neighbouring entries already listed, for reference:
target gene,dsRNA no.,"calcium signal, replicate 1","calcium signal, replicate 2","retest calcium signal, replicate 1","retest calcium signal, replicate 2"
CG5245,1,144,130,,
CG13743,1,120,87.6,5971,113
CG13743,2,162,113,,
